This experiment concerns the target T1, Rad5 protein tagged with FLAG epitope (S. cerevisiae) (UniProt P32849).
T1 sequence: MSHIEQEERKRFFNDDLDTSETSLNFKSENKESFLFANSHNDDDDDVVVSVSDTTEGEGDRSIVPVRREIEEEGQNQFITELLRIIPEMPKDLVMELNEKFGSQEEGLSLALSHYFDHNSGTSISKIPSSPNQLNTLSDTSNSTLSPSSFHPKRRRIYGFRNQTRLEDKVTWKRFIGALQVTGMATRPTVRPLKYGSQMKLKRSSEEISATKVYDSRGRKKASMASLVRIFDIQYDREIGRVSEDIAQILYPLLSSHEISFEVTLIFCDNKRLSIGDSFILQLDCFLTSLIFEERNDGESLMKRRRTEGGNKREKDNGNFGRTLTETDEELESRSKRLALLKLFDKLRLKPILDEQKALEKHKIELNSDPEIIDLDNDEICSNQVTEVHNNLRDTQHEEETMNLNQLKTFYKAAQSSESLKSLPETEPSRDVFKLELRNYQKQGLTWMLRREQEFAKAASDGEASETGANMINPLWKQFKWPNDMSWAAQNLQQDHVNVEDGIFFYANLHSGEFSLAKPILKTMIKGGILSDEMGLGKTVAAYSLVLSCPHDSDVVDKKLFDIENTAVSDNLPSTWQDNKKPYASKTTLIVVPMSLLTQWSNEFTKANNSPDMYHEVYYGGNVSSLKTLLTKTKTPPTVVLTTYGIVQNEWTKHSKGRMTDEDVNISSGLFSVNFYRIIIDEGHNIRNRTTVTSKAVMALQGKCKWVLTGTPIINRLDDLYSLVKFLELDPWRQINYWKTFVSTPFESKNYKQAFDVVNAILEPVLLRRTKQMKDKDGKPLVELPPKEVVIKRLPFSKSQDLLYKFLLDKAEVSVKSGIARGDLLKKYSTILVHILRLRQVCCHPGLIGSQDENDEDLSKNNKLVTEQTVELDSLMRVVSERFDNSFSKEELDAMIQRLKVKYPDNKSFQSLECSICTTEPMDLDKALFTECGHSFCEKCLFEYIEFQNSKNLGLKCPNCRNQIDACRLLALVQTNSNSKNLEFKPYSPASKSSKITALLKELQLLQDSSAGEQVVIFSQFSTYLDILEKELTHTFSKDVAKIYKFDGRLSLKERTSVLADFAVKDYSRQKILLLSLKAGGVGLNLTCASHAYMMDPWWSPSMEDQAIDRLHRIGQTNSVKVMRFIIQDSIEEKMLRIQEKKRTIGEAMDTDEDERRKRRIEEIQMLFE
Put plainly: co-IP; whole yeast cell extracts (2 mg protein, RIPA lysis buffer: 25 mM Tris-HCl pH 7.6, 150 mM NaCl, 1% NP-40, 1 mM EDTA) of strains DGY19 and BYRev1-ProA-His7 incubated with anti-FLAG affinity gel overnight at 4 °C; Rev1-ProA detected with PAP antibody, Rad5 with anti-FLAG.

Results are given in words; binding and its absence hold for the method and conditions named. In cells and extracts the contact can be indirect. Some entries that bind do so weakly or less than the wild type. Sequences can lack the tags named with a protein.

B1: Rev1 C-terminally tagged with a TEV-ProA-His7 epitope (protein, UniProt P12689 1-985)
chain: MGEHGGLVDLLDSDLEYSINRETPDKNNCLSQQSVNDSHLTAKTGGLNARSFLSTLSDDSLIEYVNQLSQTNKNNSNPTAGTLRFTTKNISCDELHADLGGGEDSPIARSVIEIQESDSNGDDVKKNTVYTREAYFHEKAHGQTLQDQILKDQYKDQISSQSSKIFKNCVIYINGYTKPGRLQLHEMIVLHGGKFLHYLSSKKTVTHIVASNLPLKKRIEFANYKVVSPDWIVDSVKEARLLPWQNYSLTSKLDEQQKKLDNCKTVNSIPLPSETSLHKGSKCVGSALLPVEQQSPVNLNNLEAKRIVACDDPDFLTSYFAHSRLHHLSAWKANLKDKFLNENIHKYTKITDKDTYIIFHIDFDCFFATVAYLCRSSSFSACDFKRDPIVVCHGTKNSDIASCNYVARSYGIKNGMWVSQAEKMLPNGIKLISLPYTFEQFQLKSEAFYSTLKRLNIFNLILPISIDEAVCVRIIPDNIHNTNTLNARLCEEIRQEIFQGTNGCTVSIGCSDSLVLARLALKMAKPNGYNITFKSNLSEEFWSSFKLDDLPGVGHSTLSRLESTFDSPHSLNDLRKRYTLDALKASVGSKLGMKIHLALQGQDDEESLKILYDPKEVLQRKSLSIDINWGIRFKNITQVDLFIERGCQYLLEKLNEINKTTSQITLKLMRRCKDAPIEPPKYMGMGRCDSFSRSSRLGIPTNEFGIIATEMKSLYRTLGCPPMELRGLALQFNKLVDVGPDNNQLKLRLPFKTIVTNRAFEALPEDVKNDINNEFEKRNYKRKESGLTSNSLSSKKKGFAISRLEVNDLPSTMEEQFMNELPTQIRAEVRHDLRIQKKIQQTKLGNLQEKIKRREESLQNEKNHFMGQNSIFQPIKFQNLTRFKKICQLVKQWVAETLGDGGPHEKDVKLFVKYLIKLCDSNRVHLVLHLSNLISRELNLCAFLNQDHSGFQTWERILLNDIIPLLNRNKHTYQTVRKLDMDFEV
As to B1, the binding result is “binds”.

(Values after paper PMC7363672.)
